From PubChem BioAssay AID192 (DTP/NCI, 2004)
The list is a part of this screen's results and no random one: it gathers tests that were run many times, whatever their T/C, doses with no T/C, and many T/C values between a quarter and a half above the control. Other doses and runs of a compound stand elsewhere. T/C gives the treated animals as a percentage of the vehicle group. Some entries give survivors of the animals treated and no T/C: the source files T/C as zero there, which appears to mark a toxic dose or a test without result, not a measured value. Some survivor counts are full or nearly so, which does not show that the dose was tolerated: the source hardly ever lists a survival T/C far under the control, and the zero likely stands for such cases as well. Survivors were counted at the toxicity check, usually on the fifth day, unless a day is given; later deaths do not show. Schedules are NCI's codes, read here as Q, the interval in days (D) or hours (H), X, the number of doses. Some entries hold several experiments; the results are listed from low to high. Where survival is the endpoint, the PubChem record calls one and a half times the control and up active, and a quarter to a half above the control has no call in these data; cut-offs in other NCI protocols can differ. Some T/C values are followed by the survivors on the day toxicity was checked, most often the fifth; where none is given, no animal had died by that day. Numbered stars: 1 amine (or outer) side, 2 acyl side, 3 side chain; on linkers, the order of the positions; unused ones are H or OH. Bridge positions count the residues as written; N and C are the ends. Square brackets hold non-standard residues; d marks the D form. Peptide text beside a SMILES is read from it. I, II: the chains in the order shown. * marks the point of attachment. Actinocin(1to9) = Cc1c2oc3c(C)ccc(C(=O)[*:2])c3nc-2c(C(=O)[*:1])c(N)c1=O; Trt = c1ccc(C(c2ccccc2)(c2ccccc2)*)cc1; X1 = O=C1CC(C(=O)[*:2])N([*:1])C1; NMeV = CN[CH](C(=O)O)C(C)C; Cbz = O=C(OCc1ccccc1)*; Bn = c1ccc(C*)cc1; βAla = NCCC(=O)O; Sar = CNCC(=O)O

Test system: BDF1 mice, B16 melanoma ip, median survival T/C
Experiment: NCI In Vivo Anticancer Drug Screen. Data for tumor model B16 Melanoma (intraperitoneal) in B6D2F1 (BDF1) mice
Settings: T/C endpoint: median survival time, higher T/C = longer survival
Summary of the method: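 The ratio T/C compares compound-treated mice with vehicle-treated controls, using survival or tumor size as the endpoint in a transplantable tumor model.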

[1] = dose: 100.0 mg/kg/injection, schedule: Q01DX009 (ip), vehicle: saline with Tween-80
[2] = dose: 200.0 mg/kg/injection, schedule: Q01DX009 (ip), vehicle: saline with Tween-80
[3] = dose: 100.0 mg/kg/injection, schedule: Q01DX009 (ip), vehicle: Klucel (hydroxypropylcellulose) (HPC)
[4] = dose: 400.0 mg/kg/injection, schedule: Q01DX009 (ip), vehicle: saline with Tween-80
[5] = dose: 400.0 mg/kg/injection, schedule: Q01DX009 (ip), vehicle: Klucel (hydroxypropylcellulose) (HPC)
[6] = dose: 50.0 mg/kg/injection, schedule: Q01DX009 (ip), vehicle: saline with Tween-80
[7] = dose: 50.0 mg/kg/injection, schedule: Q01DX009 (ip), vehicle: Klucel (hydroxypropylcellulose) (HPC)
[8] = dose: 200.0 mg/kg/injection, schedule: Q01DX009 (ip), vehicle: Klucel (hydroxypropylcellulose) (HPC)
[9] = dose: 400.0 mg/kg/injection, schedule: Q01DX009 (ip), vehicle: saline

Compound: O=Cc1c(O)c2ccccc2[nH]c1=O
- T/C [1]: 132 % of control [9 of 10 alive]
- survivor count [2]: 3 of 10 and 8 of 10

Compound: CC(=O)[O][Pb]([O]C(C)=O)([c]1ccccc1)[c]1ccccc1
- survivor count [3]: 10 of 10

Compound: CC(C)CC(Br)C(=O)NCC(=O)O (configuration not stated)
- survivor count [1]: 10 of 10
- survivor count [2]: 10 of 10
- survivor count [4]: 10 of 10

Compound: CCC[CH2][Sn]([CH2]CCC)([S]C#N)[S]C#N
- survivor count (dose: 6.0 mg/kg/injection, schedule: Q01DX009 (ip), vehicle: saline with Tween-80): 2 of 10
- survivor count (dose: 12.0 mg/kg/injection, schedule: Q01DX009 (ip), vehicle: saline with Tween-80): 0 of 10

Compound: COC(=O)C(CSC(c1ccccc1)(c1ccccc1)c1ccccc1)NC(=O)C(CSCc1ccccc1)NC(=O)CCNC(=O)OCc1ccccc1 (configuration not stated) ({Cbz-βAla}-Cys(Bn)-Cys(Trt)-OMe; configuration not given here)
- T/C [3]: 131 % of control
- survivor count [3]: 10 of 10

Compound: COC(=O)/C=C/NC(=O)c1ccccc1C(=O)OC
- survivor count (dose: 50.0 mg/kg/injection, schedule: Q04DX003 (ip), vehicle: Klucel (hydroxypropylcellulose) (HPC)): 10 of 10
- survivor count [3]: 9 of 10
- survivor count [5]: 9 of 10

Compound: COc1cc2ccc(CC(=O)NCc3ccccc3)cc2cc1OC
- T/C [6]: 125 % of control
- T/C (dose: 90.0 mg/kg/injection, schedule: Q01DX009 (ip), vehicle: Klucel (hydroxypropylcellulose) (HPC)): 125 % of control
- T/C [2]: 127 % of control
- T/C (dose: 300.0 mg/kg/injection, schedule: Q01DX009 (ip), vehicle: Klucel (hydroxypropylcellulose) (HPC)): 127 % of control

Compound: CCC(=O)/C=C/C1C(C)=CCCC1(C)C (configuration not stated)
- survivor count [2]: 8 of 10

Compound: CC(Cc1ccccc1)NC(=O)CCNNC(=O)c1ccncc1 (configuration not stated)
- survivor count (dose: 25.0 mg/kg/injection, schedule: Q01DX009 (ip), vehicle: Klucel (hydroxypropylcellulose) (HPC)): 10 of 10
- survivor count [7]: 6 of 10
- survivor count [3]: 9 of 10
- survivor count [8]: 6 of 10

Compound: COC(=O)C(CC(C)C)NC(=O)C(N)Cc1ccc(OCc2ccccc2)cc1 (configuration not stated) (H-Tyr(Bn)-Leu-OMe; configuration not given here)
- survivor count [7]: 9 of 10

Compound: N#Cc1cn(C2OC(CO)C(O)C2O)c2ncnc(N)c12 (configuration not stated)
- survivor count (dose: 0.5 mg/kg/injection, schedule: Q01DX009 (ip), vehicle: saline): 10 of 10
- survivor count (dose: 1.0 mg/kg/injection, schedule: Q01DX009 (ip), vehicle: saline): 10 of 10
- survivor count (dose: 2.0 mg/kg/injection, schedule: Q01DX009 (ip), vehicle: saline): 9 of 10

Compound: C[C@@H]1CCC[C@@H](NC(=O)N(CCCl)N=O)C1
- T/C (dose: 9.38 mg/kg/injection, schedule: Q01DX009 (ip), vehicle: Klucel (hydroxypropylcellulose) (HPC)): 131 % of control
- T/C (dose: 9.4 mg/kg/injection, schedule: Q01DX009 (ip), vehicle: Klucel (hydroxypropylcellulose) (HPC)): 134 % of control
- survivor count (dose: 75.0 mg/kg/injection, schedule: Q01DX009 (ip), vehicle: Klucel (hydroxypropylcellulose) (HPC)): 10 of 10

Compound: COc1ccccc1NC(=O)Nc1ccccc1Cl
- survivor count [1]: 10 of 10
- survivor count [2]: 10 of 10
- survivor count [4]: 10 of 10

Compound: COC1C=CC23c4cc5c(cc4C(O)OC2CN(C)C3C1)OCO5 (configuration not stated)
- T/C (dose: 50.0 mg/kg/injection, schedule: Q01DX009 (ip), vehicle: saline): 131 % of control

Compound: c1ccc2c(CNC3CCCCC3)c[nH]c2c1
- survivor count [3]: 7 of 10
- survivor count (dose: 200.0 mg/kg/injection, schedule: Q04DX003 (ip), vehicle: Klucel (hydroxypropylcellulose) (HPC)): 2 of 10
- survivor count (dose: 400.0 mg/kg/injection, schedule: Q04DX003 (ip), vehicle: Klucel (hydroxypropylcellulose) (HPC)): 0 of 10

Compound: C[N+](C)(C)c1ncnc2nc[nH]c12
- survivor count [9]: 0 of 10

Compound: Cc1ccc2cc3c(ccc4ccccc43)c3c2c1CC3
- T/C (dose: 100.0 mg/kg/injection, schedule: Q01DX009 (ip), vehicle: saline): 126 % of control
- T/C (dose: 200.0 mg/kg/injection, schedule: Q01DX009 (ip), vehicle: saline): 126 % of control
- T/C [4]: 129 % of control
- T/C [9]: 130 % of control

Compound: CNC(C)C1(O)Cc2c(O)c3c(c(O)c2C(OC2CC(N)C(O)C(C)O2)C1)C(=O)c1c(OC)cccc1C3=O (configuration not stated)
- T/C (dose: 2.0 mg/kg/injection, schedule: Q01DX009 (ip), vehicle: water): 140 % of control

Compound: Fc1ccc(/C=C2/c3cc(Cl)ccc3-c3c(Cl)cc(Cl)cc32)cc1
- survivor count [6]: 6 of 6

Compound: C#CCOCC(O)CCl (configuration not stated)
- survivor count [2]: 6 of 6
- survivor count [4]: 1 of 6

Compound: Cc1cc(C)c(NC(=O)Nc2ccccc2)c(C)c1
- survivor count [3]: 10 of 10
- survivor count [8]: 7 of 10
- survivor count [5]: 5 of 10

Compound: Cc1ccc(NC(=O)COc2ccc(Cl)cc2Cl)c([N+](=O)[O-])c1
- survivor count [8]: 10 of 10
- survivor count [5]: 9 of 10

Compound: CC1=CC(C)(C)Nc2ccc(CSc3ccccc3)cc21
- survivor count (dose: 12.5 mg/kg/injection, schedule: Q01DX009 (ip), vehicle: DMSO): 10 of 10 and 8 of 8
- survivor count (dose: 25.0 mg/kg/injection, schedule: Q01DX009 (ip), vehicle: DMSO): 10 of 10 and 8 of 8
- survivor count (dose: 50.0 mg/kg/injection, schedule: Q01DX009 (ip), vehicle: DMSO): 10 of 10 and 7 of 7
- survivor count (dose: 100.0 mg/kg/injection, schedule: Q01DX009 (ip), vehicle: DMSO): 5 of 8 and 9 of 10
- survivor count (dose: 200.0 mg/kg/injection, schedule: Q01DX009 (ip), vehicle: DMSO): 2 of 10 and 3 of 8
- survivor count (dose: 200.0 mg/kg/injection, schedule: Q01DX009 (ip), vehicle: saline + Tween-80 + alcohol): 5 of 10
- survivor count (dose: 400.0 mg/kg/injection, schedule: Q01DX009 (ip), vehicle: DMSO): 0 of 10 and 0 of 8
- survivor count (dose: 400.0 mg/kg/injection, schedule: Q01DX009 (ip), vehicle: saline + Tween-80 + alcohol): 0 of 10

Compound: Cc1c2oc3c(C)ccc(C(=O)NC4C(=O)NC(C(C)C)C(=O)N5CCCC5C(=O)N(C)CC(=O)N(C)C(C(C)C)C(=O)OC4C)c3nc-2c(C(=O)NC2C(=O)NC(C(C)C)C(=O)N3CC(=O)CC3C(=O)N(C)CC(=O)N(C)C(C(C)C)C(=O)OC2C)c(N)c1=O (configuration not stated) (I: TV[X1][Sar][NMeV] / II: TVP[Sar][NMeV]; ester I:1-I:C, II:1-II:C; linker I:N-II:N via Actinocin(1to9); configuration not given here)
- T/C (dose: 3.1 micrograms/kg/injection, schedule: Q01DX009 (ip), vehicle: water): 126 % of control
- T/C (dose: 12.5 micrograms/kg/injection, schedule: Q01DX009 (ip), vehicle: water): 136 % of control
- survivor count (dose: 25.0 micrograms/kg/injection, schedule: Q01DX009 (ip), vehicle: water): 9 of 9
- T/C (dose: 37.5 micrograms/kg/injection, schedule: Q04DX003 (ip), vehicle: water): 126 % of control
- survivor count (dose: 50.0 micrograms/kg/injection, schedule: Q01DX009 (ip), vehicle: water): 9 of 10
- survivor count (dose: 75.0 micrograms/kg/injection, schedule: Q04DX003 (ip), vehicle: water): 10 of 10
- survivor count (dose: 150.0 micrograms/kg/injection, schedule: Q04DX003 (ip), vehicle: water): 2 of 10
- survivor count (dose: 200.0 micrograms/kg/injection, schedule: Q01DX001 (ip), vehicle: water): 3 of 10
- survivor count (dose: 400.0 micrograms/kg/injection, schedule: Q01DX001 (ip), vehicle: water): 1 of 10

Compound: S=C(N=Nc1ccccc1)NNc1ccccc1
- survivor count (dose: 75.0 mg/kg/injection, schedule: Q01DX009 (ip), vehicle: saline with Tween-80): 8 of 10
- survivor count (dose: 150.0 mg/kg/injection, schedule: Q01DX009 (ip), vehicle: saline with Tween-80): 4 of 10

Compound: CCCCN(CC)C(=S)S[Te](SC(=S)N(CC)CCCC)(SC(=S)N(CC)CCCC)SC(=S)N(CC)CCCC
- survivor count [8]: 4 of 6

Compound: O=NN(CCF)C(=O)N[C@H]1CCCC[C@H]1O
- T/C (dose: 30.0 mg/kg/injection, schedule: Q01DX001 (ip), vehicle: saline): 149 % of control
- survivor count (dose: 120.0 mg/kg/injection, schedule: Q01DX001 (ip), vehicle: saline): 4 of 10 on day 6
